Experimental data published in PubChem BioAssay AID2551 (National Center for Advancing Translational Sciences (NCATS), 2010).
About 17,000 (5.5%) of roughly 310,000 compounds were called active. Inconclusive results, whose numbers are uncertain, are shown with a selection of clear calls. The call rests on the fitted dose curve; in most records, active means well fitted inhibition curve with a large enough effect; inconclusive means small, poorly fitted or top-dose-only effect, or effect the other way; inactive means no such curve, though single readings can be large or run the other way. A potency beside an inconclusive call is a rough fit, not a confirmed value.

Chains of the proteins cited; added tags and fusions are not shown. Lines headed by an entry give the natural chain unless they say otherwise; changes in a name come on top.
UniProt P51450: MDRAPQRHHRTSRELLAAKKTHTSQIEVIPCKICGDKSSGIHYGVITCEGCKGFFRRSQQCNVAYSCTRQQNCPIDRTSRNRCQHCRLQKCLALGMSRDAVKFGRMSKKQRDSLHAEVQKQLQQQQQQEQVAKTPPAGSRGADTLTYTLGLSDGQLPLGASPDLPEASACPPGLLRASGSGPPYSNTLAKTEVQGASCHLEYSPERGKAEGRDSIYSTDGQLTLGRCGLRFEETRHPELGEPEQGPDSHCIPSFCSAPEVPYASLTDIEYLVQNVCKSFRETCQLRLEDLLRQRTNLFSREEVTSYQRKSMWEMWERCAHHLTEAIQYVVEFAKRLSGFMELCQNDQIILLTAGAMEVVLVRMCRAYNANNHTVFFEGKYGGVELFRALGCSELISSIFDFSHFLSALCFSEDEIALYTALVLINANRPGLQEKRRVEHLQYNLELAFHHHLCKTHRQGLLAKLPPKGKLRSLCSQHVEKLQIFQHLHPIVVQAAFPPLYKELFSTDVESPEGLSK

target: Nuclear receptor ROR-gamma (Mus musculus) (UniProt P51450); experiment: qHTS for inhibitors of ROR gamma transcriptional activity; settings: Drosophila S2 Gal4-RORgamma UAS-luciferase reporter, 20 h; activity change, negative = inhibition: at 53.6 µM (top of the series); further: nearly all actives have a fitted effect of over 60% in size
Procedure, shortened: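 Stable Schneider cell line, Gal4 DNA-binding domain fused to ROR gamma, UAS-luciferase. Cmpd 1 hr RT → CuSO4 700 uM final → 20 hr RT → luciferase reagent 10 min → luminescence.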
On the % scale 0 is the no-effect control and ±100 the full control effect; potency means the concentration at half of the fitted maximal effect.

How did the Potency turn out when `C=CCOc1ccc(/C=C2/C(=O)ON=C2C)cc1OC` was run?
Its Potency is inconclusive: 22.4 µM [inhibitor, partial curve, poor fit].

Which “activity change, negative = inhibition” value does the source give for `CS(=O)(=O)Nc1cccc(-c2ccc3ncnc(NC4CCNCC4)c3c2)c1` here?
Its value is inactive: 2.76%.

Which Potency does the source give for `Cc1ccc(S(=O)(=O)N2CCOCC2)cc1C(=O)Nc1ccc(-c2cn3ccsc3n2)cc1` here?
Its Potency is inconclusive: 12.6 µM [activator, partial curve].

How did the “activity change, negative = inhibition” value turn out when `Cc1ccc(S(=O)(=O)N(C)C)cc1NC(=O)COC(=O)COc1ccccc1[N+](=O)[O-]` was run?
Its value is inactive: 33.5%.

Which Potency does the source give for `Cc1cccc(/C(N)=N/OC(=O)c2ccoc2C)c1` here?
The Potency was inconclusive: 14.1 µM [inhibitor, single point].

With `O=C(NCc1ccco1)/C(=C\c1ccc(F)cc1)NC(=O)c1ccco1` as the molecule, how does the “activity change, negative = inhibition” value read?
The value was inactive: -15.4%.

`CCC1CCCCN1C(=O)Cn1c(C(=O)OC)cc2ccsc21` (stereo not given) was tested. Which “activity change, negative = inhibition” value did it give?
The value was inactive: -16.8%.

`CN(C)c1ccc(/C=C(\C#N)c2ccccn2)cc1` was tested. Which Potency did it give?
Its Potency is active: 7.08 µM.

For `CCCCC(=O)NC(c1ccccc1Cl)c1ccc2cccnc2c1O` (stereo not given), which Potency is on record?
Its Potency is active: 5.01 µM.

Which “activity change, negative = inhibition” value does the source give for `CC(C)([CH2][Sn]([CH2]C(C)(C)c1ccccc1)([CH2]C(C)(C)c1ccccc1)[O][Sn]([CH2]C(C)(C)c1ccccc1)([CH2]C(C)(C)c1ccccc1)[CH2]C(C)(C)c1ccccc1)c1ccccc1` here?
Its value is inactive: -1.03%.

For `COc1cccc(N2CCN(C(=O)CCNS(=O)(=O)c3ccc4c(c3)c(=O)n(C)c(=O)n4C)CC2)c1`, which “activity change, negative = inhibition” value is on record?
Its value is inactive: 19.2%.

How did the Potency turn out when `CCN(CC)c1ccc(/C=C2\C(=N)N3N=C(CC(=O)N4CCOCC4)SC3=NC2=O)cc1` was run?
The Potency was inconclusive: 35.5 µM [activator, single point].

How did the “activity change, negative = inhibition” value turn out when `COc1ccc(S(=O)(=O)N2CCCc3ccccc32)cc1OC` was run?
Its value is inactive: 2.54%.

Which Potency does the source give for `Cc1ccc(S(=O)(=O)N2CCOCC2)cc1C(=O)OCC(=O)N1CCc2ccccc2C1` here?
The Potency was inconclusive: 25.1 µM [activator, single point].

`CCNS(=O)(=O)c1ccc(NC(=S)N2CCc3ccccc32)cc1` was tested. Which Potency did it give?
Its Potency is inconclusive: 10 µM [activator, partial curve, poor fit].

How did the Potency turn out when `COc1ccc(/C=C/C(=O)c2ccc(NS(=O)(=O)c3ccc(C)cc3)cc2)cc1O` was run?
Its Potency is inconclusive: 35.5 µM [inhibitor, single point].

`CN1CCc2c(OCC(=O)N3N=C(c4cccs4)CC3c3ccc(F)cc3)cccc2C1=O` (stereo not given) was tested. Which “activity change, negative = inhibition” value did it give?
The value was inactive: -37.1%.

`CCS(=O)(=O)N1Cc2ccccc2CC1C(=O)Nc1nc2c(C)cccc2s1` (stereo not given) was tested. Which Potency did it give?
The Potency was active: 3.55 µM.

With `CCC(=O)NCCc1nc2cc(NC(=O)c3cccc([N+](=O)[O-])c3)ccc2n1C` as the molecule, how does the “activity change, negative = inhibition” value read?
The value was inactive: -7.35%.

How did the Potency turn out when `CC(C)OC(=O)CN1C(=O)S/C(=C/c2ccc(N3CCCCC3)o2)C1=O` was run?
Its Potency is inconclusive: 15.8 µM [inhibitor, single point].
